In patent US20140113934A1, “HETEROCYCLIC COMPOUNDS FOR TREATING HELMINTH INFECTIONS” (E I DU PONT DE NEMOURS AND COMPANY, priority 2011, published 2014):
Some of these results come from one statement about several compounds together. At least one structure is not confirmed: it was looked up by name or label, or the drawing left a doubt.

System: Haemonchus contortus
Assay: Test C: Haemonchus contortus burdens in orally infected lambs after gavage of test compound
Type: in vivo
Settings: 5.0 mg/kg body weight by gavage on day 0, evaluated day 8 relative to vehicle-dosed controls, n=1

Structure (SMILES): O=S(=O)(NCc1ccnc2ccccc12)c1ccc(Cc2ccc(F)cc2)cc1 [Compound 59]
- reduction of adult worms: ≥ 75%

Structure (SMILES): O=S(=O)(NCc1ccnc2ccccc12)c1ccc(Cc2ccccc2)cc1 [Compound 5, 4-(phenylmethyl)-N-(4-quinolinylmethyl)benzenesulfonamide]
- reduction of adult worms: ≥ 75%
